{"source": "patent US20210393520A1", "about": "“TREATMENT OF GRAM-NEGATIVE FOLLICULITIS OR AN INFLAMMATION THEREOF WITH BESIFLOXACIN” (VYOME THERAPEUTICS LIMITED, priority 2018, published 2021)", "key": {"P. acnes V3-1": {"tested_on": "P. acnes V3-1", "assay": "MIC against bacteria isolated from acne lesions, Table 2", "type": "cell-based, Propionibacterium acnes", "conditions": "Cutibacterium acnes, V31; P. acnes V3-1, isolated from acne lesions; read-out: Minimum Inhibitory Concentration", "description": "(§1) MIC of besifloxacin and other antibiotics molecules were determined by micro broth dilution method as per the Clinical and Laboratory Standards Institute (CLSI) guideline. MIC assay is the determinant of the inherent anti-microbial potency of a particular molecule. For preparing inoculum, bacterial strains were cultured in Brain Heart Infusion Agar (BHIA) at 37° C. for 24 hours. […] For bacterial inoculum, bacterial culture turbidity was adjusted to 0.1 OD at 600 nm in UV-Visual spectrophotometer (approximately 1.5×10^8 cells/ml) and further diluted (100 times with sterile BHI broth). Diluted bacterial suspension (100 μl) was added to each well except sterility control wells (column 12 of 96 well plate). Column 11 of 96 well plate was used as growth control and vehicle control. The plates were incubated at 37° C. for 24 h. The MIC of the test compounds were determined by observing the lowest concentration of test compound that prevented the visual bacterial growth.\n(§2) Different skin resident bacteria were isolated from acne lesions of moderate to severe acne patients."}, "S. epidermidis S1-1": {"tested_on": "S. epidermidis S1-1", "assay": "MIC against bacteria isolated from acne lesions, Table 2", "type": "cell-based", "conditions": "Staphylococcus epidermidis, S11; S. epidermidis S1-1, isolated from acne lesions; read-out: Minimum Inhibitory Concentration", "description": "as §1, §2"}, "P. avidum S3-1": {"tested_on": "P. avidum S3-1", "assay": "MIC against bacteria isolated from acne lesions, Table 2", "type": "cell-based", "conditions": "Cutibacterium avidum, S31; P. avidum S3-1, isolated from acne lesions; read-out: Minimum Inhibitory Concentration", "description": "as §1, §2"}, "Kocuria sp. S18-1": {"tested_on": "Kocuria sp. S18-1", "assay": "MIC against bacteria isolated from acne lesions, Table 2", "type": "cell-based", "conditions": "SP.S181; Kocuria sp. S18-1, isolated from acne lesions; read-out: Minimum Inhibitory Concentration", "description": "as §1, §2"}, "Microbacterium sp. S20-2": {"tested_on": "Microbacterium sp. S20-2", "assay": "MIC against bacteria isolated from acne lesions, Table 2", "type": "cell-based", "conditions": "Microbacterium sp. S20-2, isolated from acne lesions", "description": "as §1, §2"}, "[1]": {"tested_on": "Staphylococcus haemolyticus M1-1", "assay": "MIC against bacteria isolated from acne lesions, Table 2", "type": "cell-based", "conditions": "M11; Staphylococcus haemolyticus M1-1, isolated from acne lesions; read-out: Minimum Inhibitory Concentration", "description": "as §1, §2"}, "[2]": {"tested_on": "Enterobacter aerogenes M2-1", "assay": "MIC against bacteria isolated from acne lesions, Table 2", "type": "cell-based", "conditions": "Klebsiella aerogenes, M21; Enterobacter aerogenes M2-1, isolated from acne lesions; read-out: Minimum Inhibitory Concentration", "description": "as §1, §2"}, "K. pneumoniae S6-1": {"tested_on": "K. pneumoniae S6-1", "assay": "MIC against bacteria isolated from acne lesions, Table 2", "type": "cell-based", "conditions": "Klebsiella pneumoniae, S61; K. pneumoniae S6-1, isolated from acne lesions; read-out: Minimum Inhibitory Concentration", "description": "as §1, §2"}, "[3]": {"tested_on": "Bacillus megaterium M1-2.", "assay": "MIC against bacteria isolated from acne lesions, Table 2", "type": "cell-based", "conditions": "Priestia megaterium, M12., read-out: Minimum Inhibitory Concentration", "description": "as §1, §2"}, "[4]": {"tested_on": "Dermatobacter hominis S11-2", "assay": "MIC against bacteria isolated from acne lesions, Table 2", "type": "cell-based", "conditions": "S112; Dermatobacter hominis S11-2, isolated from acne lesions; read-out: Minimum Inhibitory Concentration", "description": "as §1, §2"}, "Blastococcus sp. S21A-2": {"tested_on": "Blastococcus sp. S21A-2", "type": "cell-based", "conditions": "Blastococcus sp. S21A-2, isolated from acne lesions", "description": "as §1, §2"}}, "data": [{"compound": "CCC[C@@H]1C[C@@H](C(=O)N[C@@H]([C@H]2O[C@H](SC)[C@H](O)[C@@H](O)[C@H]2O)[C@H](C)Cl)N(C)C1", "note": "[Clindamycin]", "values": [{"measurement": "MIC", "setting": "P. acnes V3-1", "result": 0.5, "unit": "µg/mL"}, {"measurement": "MIC", "setting": "S. epidermidis S1-1", "result": "> 4", "unit": "µg/mL"}, {"measurement": "MIC", "setting": "P. avidum S3-1", "result": 0.06, "unit": "µg/mL"}, {"measurement": "MIC", "setting": "Kocuria sp. S18-1", "result": 1, "unit": "µg/mL"}, {"measurement": "Minimum Inhibitory Concentration", "setting": "Microbacterium sp. S20-2", "result": ">4", "unit": "µg/mL"}, {"measurement": "MIC", "setting": "[1]", "result": 0.13, "unit": "µg/mL"}, {"measurement": "MIC", "setting": "[2]", "result": "> 4", "unit": "µg/mL"}, {"measurement": "MIC", "setting": "K. pneumoniae S6-1", "result": "> 4", "unit": "µg/mL"}, {"measurement": "MIC", "setting": "[3]", "result": "> 4", "unit": "µg/mL"}, {"measurement": "MIC", "setting": "[4]", "result": "> 4", "unit": "µg/mL"}, {"measurement": "Minimum Inhibitory Concentration", "setting": "Blastococcus sp. S21A-2", "result": 0.25, "unit": "µg/mL"}]}]}
